{"source": "paper PMC6677759", "biological_target": "T1, NtCRF2 LHRI-VHIID-LHRII (Nicotiana tabacum (cv. Petite Havana SR1)) (UniProt A0A1U7XHE4)", "T1 sequence (looked up)": "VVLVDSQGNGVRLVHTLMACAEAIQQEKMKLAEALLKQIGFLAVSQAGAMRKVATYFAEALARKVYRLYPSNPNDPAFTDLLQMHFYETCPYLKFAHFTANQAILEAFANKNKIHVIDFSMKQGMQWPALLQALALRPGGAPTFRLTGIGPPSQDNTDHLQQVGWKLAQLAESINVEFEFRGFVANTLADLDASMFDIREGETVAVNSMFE", "assay": "EMSA", "details": "EMSA: 20 ul, 1x LightShift binding buffer, 1 ug poly(dI-dC), 2.5% glycerol, 0.05% NP-40, 50 mM KCl, 5 mM MgCl2, 20 fmol probe, 1-4 ug protein, 20 min at 25 C; recombinant protein; residues 207-417; label: 5' biotin", "note": "Construct, isoform or probe ends are uncertain for at least one entry. At least one verdict was read from the data and is not stated in words by the source. Tags and fusion partners may be left off the protein sequences shown.", "data": [{"sequence": "ACTATAATTCTTTGCTTACTCTCTAAATTTCCGGCCTTGATTTTGGGAAGTGTTT (double strand) [M3]", "values": [{"measurement": "binding result", "result": "binds"}]}]}
